Compound in the assay: Nc1ncnc2c1ncn2[C@@H]1O[C@H](COP(=O)(O)OP(=O)(O)OP(=O)(O)O)[C@@H](O)[C@H]1O [adenosine triphosphate]
The assay is described as follows: NP40-soluble protein abundance relative to vehicle (solubility fold change) (ratio); higher = more soluble protein in presence of ATP. The method in brief: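 Each value is a fold change relative to the detergent-processed vehicle, calculated per replicate from vsn-normalised intensities. Jurkat crude lysate received eight concentrations (0.1 to 10 mM) for 10 min at room temperature and 3 min at 37 °C, then was solubilised in 0.8% NP40 with benzonase (60 min, 4 °C). The ultracentrifuged supernatant was TMT-labelled and run by LC-MS/MS in three independent experiments.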

The chains behind the UniProt entries cited, without tags or fusion partners. Where a name states a change or a piece, a line headed by the entry shows the natural chain unless it says otherwise.
UniProt O95139, whole entry: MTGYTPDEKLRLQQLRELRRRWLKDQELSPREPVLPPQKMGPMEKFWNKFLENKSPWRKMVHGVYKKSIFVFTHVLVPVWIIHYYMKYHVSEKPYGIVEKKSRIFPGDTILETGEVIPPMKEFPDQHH
UniProt Q14517: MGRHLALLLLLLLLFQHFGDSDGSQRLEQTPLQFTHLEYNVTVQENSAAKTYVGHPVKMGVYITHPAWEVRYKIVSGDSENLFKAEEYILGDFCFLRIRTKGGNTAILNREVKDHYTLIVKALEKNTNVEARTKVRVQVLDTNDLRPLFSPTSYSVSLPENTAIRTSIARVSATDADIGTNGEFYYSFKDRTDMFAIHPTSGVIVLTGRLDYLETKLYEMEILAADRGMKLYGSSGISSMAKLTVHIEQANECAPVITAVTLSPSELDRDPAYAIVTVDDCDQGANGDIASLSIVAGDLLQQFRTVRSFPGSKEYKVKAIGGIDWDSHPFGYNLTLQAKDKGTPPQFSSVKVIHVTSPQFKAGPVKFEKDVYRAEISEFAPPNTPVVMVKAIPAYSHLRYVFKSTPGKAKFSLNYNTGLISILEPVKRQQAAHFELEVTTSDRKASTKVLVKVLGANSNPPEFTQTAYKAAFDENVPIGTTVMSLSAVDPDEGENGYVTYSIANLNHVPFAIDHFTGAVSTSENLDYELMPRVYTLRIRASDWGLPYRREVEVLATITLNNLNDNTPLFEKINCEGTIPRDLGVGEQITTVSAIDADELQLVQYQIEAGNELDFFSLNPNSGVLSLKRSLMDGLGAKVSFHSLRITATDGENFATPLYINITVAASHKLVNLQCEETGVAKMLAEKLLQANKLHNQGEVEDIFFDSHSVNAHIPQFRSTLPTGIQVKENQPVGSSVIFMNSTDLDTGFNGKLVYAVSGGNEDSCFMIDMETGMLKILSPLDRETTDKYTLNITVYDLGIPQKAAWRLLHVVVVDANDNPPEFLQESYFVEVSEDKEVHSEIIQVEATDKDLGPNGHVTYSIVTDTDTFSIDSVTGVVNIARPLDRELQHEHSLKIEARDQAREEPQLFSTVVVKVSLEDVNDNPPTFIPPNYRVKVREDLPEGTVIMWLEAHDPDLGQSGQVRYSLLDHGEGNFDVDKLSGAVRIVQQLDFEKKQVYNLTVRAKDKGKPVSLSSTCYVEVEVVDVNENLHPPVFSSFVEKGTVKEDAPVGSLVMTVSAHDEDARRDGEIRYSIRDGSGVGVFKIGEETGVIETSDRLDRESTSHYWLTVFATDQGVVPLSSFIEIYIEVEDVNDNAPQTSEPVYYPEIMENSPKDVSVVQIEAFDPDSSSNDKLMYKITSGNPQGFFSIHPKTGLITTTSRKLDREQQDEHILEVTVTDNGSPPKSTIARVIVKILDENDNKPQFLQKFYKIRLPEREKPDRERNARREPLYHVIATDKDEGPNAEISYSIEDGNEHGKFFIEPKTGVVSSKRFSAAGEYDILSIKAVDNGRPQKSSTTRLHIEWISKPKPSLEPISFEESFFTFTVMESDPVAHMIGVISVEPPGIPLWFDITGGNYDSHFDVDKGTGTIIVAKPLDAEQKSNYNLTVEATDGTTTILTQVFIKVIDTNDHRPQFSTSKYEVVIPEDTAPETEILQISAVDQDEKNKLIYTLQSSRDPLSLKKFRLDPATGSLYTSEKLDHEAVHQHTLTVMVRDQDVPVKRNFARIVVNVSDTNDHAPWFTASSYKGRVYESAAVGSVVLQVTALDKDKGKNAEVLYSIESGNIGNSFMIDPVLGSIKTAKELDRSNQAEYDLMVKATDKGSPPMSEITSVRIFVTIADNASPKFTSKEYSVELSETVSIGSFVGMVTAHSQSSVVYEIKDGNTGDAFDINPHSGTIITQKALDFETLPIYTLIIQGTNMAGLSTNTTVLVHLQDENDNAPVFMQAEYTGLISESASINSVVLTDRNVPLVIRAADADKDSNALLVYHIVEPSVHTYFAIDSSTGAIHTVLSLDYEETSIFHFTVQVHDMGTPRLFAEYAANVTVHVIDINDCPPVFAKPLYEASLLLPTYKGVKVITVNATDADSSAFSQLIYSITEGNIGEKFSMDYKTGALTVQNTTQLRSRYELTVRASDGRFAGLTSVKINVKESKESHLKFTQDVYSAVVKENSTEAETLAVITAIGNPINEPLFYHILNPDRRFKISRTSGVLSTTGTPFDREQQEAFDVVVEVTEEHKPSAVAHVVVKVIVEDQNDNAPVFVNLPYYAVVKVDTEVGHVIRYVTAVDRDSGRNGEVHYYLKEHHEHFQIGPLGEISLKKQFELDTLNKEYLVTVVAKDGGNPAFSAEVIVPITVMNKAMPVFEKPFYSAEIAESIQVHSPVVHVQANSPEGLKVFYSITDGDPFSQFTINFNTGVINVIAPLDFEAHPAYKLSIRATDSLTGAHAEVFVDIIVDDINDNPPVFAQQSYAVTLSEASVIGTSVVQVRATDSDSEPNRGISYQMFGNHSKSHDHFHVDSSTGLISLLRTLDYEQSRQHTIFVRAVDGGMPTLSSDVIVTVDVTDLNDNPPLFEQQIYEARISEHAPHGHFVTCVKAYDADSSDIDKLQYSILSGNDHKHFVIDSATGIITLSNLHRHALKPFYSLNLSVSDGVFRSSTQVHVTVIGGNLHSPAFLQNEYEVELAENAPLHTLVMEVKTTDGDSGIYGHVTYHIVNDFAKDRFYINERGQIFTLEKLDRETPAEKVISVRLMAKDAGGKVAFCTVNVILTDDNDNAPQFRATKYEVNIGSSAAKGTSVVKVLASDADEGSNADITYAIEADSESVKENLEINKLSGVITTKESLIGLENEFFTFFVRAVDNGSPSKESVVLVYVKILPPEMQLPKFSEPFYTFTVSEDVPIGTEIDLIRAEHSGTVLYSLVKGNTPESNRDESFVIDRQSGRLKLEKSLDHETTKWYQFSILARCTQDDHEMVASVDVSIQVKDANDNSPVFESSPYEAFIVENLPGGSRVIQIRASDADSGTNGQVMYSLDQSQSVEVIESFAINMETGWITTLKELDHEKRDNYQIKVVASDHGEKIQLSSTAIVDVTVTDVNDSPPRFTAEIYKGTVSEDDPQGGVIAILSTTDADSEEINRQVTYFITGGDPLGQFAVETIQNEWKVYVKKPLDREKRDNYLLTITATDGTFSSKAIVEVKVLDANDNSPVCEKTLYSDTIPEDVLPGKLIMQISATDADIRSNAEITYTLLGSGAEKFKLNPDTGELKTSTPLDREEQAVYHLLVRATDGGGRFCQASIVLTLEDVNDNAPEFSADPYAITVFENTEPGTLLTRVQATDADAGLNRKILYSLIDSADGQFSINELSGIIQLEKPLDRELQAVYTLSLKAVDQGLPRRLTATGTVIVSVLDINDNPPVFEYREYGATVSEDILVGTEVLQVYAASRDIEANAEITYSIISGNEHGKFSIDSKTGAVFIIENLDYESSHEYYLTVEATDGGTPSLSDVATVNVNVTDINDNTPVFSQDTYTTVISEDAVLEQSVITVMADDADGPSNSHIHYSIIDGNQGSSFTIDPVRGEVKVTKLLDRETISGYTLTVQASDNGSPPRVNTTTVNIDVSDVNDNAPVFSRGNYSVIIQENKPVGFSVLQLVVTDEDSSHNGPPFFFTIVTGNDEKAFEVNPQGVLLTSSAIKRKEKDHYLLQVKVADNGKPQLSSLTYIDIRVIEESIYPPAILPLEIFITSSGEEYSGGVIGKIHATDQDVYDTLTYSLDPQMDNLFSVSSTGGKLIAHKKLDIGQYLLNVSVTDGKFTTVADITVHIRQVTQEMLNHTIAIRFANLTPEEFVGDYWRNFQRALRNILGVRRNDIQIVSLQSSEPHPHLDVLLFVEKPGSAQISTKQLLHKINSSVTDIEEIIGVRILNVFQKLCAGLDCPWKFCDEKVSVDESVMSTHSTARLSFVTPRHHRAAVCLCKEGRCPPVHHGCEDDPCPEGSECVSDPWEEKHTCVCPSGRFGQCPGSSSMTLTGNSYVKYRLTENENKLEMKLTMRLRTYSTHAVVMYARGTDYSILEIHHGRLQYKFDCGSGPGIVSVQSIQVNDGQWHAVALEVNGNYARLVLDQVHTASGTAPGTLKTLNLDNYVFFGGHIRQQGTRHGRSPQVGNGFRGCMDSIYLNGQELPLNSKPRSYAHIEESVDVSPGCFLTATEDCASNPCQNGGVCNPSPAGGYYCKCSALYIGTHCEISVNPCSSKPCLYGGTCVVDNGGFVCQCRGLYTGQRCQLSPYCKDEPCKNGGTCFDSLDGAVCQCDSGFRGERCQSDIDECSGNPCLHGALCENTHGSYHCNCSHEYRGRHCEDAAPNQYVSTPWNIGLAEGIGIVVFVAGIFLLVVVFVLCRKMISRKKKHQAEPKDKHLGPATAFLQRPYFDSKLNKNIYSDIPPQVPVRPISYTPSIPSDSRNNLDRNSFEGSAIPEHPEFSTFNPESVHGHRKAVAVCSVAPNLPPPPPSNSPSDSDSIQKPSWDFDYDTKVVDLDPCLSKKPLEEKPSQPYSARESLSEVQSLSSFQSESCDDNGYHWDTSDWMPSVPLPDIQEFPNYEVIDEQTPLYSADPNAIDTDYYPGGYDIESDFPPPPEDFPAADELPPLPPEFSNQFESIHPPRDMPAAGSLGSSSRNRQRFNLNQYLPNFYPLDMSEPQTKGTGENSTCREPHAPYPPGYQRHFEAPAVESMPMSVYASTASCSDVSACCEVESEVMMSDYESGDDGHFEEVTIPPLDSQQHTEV
UniProt Q15651: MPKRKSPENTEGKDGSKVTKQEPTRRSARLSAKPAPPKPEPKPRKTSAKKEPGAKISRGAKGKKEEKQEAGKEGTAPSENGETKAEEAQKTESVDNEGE
UniProt O15550, whole entry: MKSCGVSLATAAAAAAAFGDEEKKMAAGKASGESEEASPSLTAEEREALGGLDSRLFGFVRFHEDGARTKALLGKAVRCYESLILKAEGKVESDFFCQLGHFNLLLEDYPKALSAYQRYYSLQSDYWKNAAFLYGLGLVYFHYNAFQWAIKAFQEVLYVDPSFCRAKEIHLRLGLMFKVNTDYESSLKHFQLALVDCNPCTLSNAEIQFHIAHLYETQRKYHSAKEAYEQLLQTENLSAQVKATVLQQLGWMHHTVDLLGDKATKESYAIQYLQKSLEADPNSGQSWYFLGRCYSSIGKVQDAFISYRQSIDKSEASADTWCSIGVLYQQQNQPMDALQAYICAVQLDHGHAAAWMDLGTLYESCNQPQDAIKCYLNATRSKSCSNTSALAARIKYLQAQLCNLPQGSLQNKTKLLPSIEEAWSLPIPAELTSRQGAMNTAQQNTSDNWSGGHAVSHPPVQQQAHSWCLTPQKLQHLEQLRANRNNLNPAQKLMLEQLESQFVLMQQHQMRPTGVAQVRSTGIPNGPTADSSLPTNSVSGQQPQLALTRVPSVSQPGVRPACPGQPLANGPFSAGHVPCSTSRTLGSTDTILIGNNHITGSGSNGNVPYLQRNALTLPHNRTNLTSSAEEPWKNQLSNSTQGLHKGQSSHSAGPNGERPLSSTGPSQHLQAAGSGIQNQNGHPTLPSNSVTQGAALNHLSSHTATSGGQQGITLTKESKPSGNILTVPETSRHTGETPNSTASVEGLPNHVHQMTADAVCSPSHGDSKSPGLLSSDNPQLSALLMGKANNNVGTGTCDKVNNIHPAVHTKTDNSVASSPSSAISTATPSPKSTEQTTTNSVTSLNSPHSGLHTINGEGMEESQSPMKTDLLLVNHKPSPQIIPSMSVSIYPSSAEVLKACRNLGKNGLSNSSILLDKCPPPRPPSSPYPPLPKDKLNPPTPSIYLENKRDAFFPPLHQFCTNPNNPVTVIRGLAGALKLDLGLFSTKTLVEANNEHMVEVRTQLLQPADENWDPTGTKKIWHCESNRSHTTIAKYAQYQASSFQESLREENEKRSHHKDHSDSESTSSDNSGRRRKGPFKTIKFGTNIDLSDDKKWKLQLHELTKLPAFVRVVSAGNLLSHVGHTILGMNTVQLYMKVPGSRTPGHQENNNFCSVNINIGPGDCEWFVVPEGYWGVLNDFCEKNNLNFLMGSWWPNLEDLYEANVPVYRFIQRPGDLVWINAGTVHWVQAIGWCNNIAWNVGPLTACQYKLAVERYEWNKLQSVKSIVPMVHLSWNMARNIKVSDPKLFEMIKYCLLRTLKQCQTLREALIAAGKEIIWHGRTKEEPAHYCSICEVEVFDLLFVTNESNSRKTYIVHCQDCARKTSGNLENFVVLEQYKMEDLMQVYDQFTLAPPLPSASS
UniProt P36969, whole entry: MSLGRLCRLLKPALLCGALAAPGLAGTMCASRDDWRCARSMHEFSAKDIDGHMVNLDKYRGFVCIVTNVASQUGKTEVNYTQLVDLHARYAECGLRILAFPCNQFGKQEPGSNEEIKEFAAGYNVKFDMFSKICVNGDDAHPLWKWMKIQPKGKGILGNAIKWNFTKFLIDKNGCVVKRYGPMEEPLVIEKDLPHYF

The values below come from the supplement of paper PMC6411743.

± gives the standard deviation of the averaged measurements. The entries are a selection whose mix differs from that of the whole data set.

For the target A0A087WZX2|O95139 (UniProt O95139), the NP40-soluble protein abundance by setting is: (concentration: 1mM) 0.905 ± 0.12; (concentration: 2mM) 0.883 ± 0.097; (concentration: 4mM) 0.885 ± 0.12; (concentration: 6mM) 0.908 ± 0.17; (concentration: 8mM) 0.931 ± 0.11; (concentration: 10mM) 0.791 ± 0.19.

For A0A087WVP1|Q14517 (UniProt Q14517), the NP40-soluble protein abundance reads like this: (concentration: 1mM) 1.02 ± 0.047; (concentration: 2mM) 1.04 ± 0.072; (concentration: 4mM) 1.1 ± 0.17; (concentration: 6mM) 1.07 ± 0.17; (concentration: 8mM) 1.07 ± 0.14; (concentration: 10mM) 1.05 ± 0.098.

Take “A0A087WXS7|K7ERW9 and related entries (UniProt O43681)”: the NP40-soluble protein abundance is, setting by setting: (concentration: 1mM) 1.03 ± 0.12; (concentration: 2mM) 0.972 ± 0.024; (concentration: 4mM) 0.949 ± 0.031; (concentration: 6mM) 0.924 ± 0.08; (concentration: 8mM) 0.915 ± 0.02; (concentration: 10mM) 0.947 ± 0.03.

Consider “A0A087WYK8|B1AKJ5 and related entries (UniProt O43847)”, for which the NP40-soluble protein abundance runs as follows: (concentration: 1mM) 1.01 ± 0.046; (concentration: 2mM) 0.997 ± 0.061; (concentration: 4mM) 0.973 ± 0.042; (concentration: 6mM) 0.961 ± 0.077; (concentration: 8mM) 0.992 ± 0.029; (concentration: 10mM) 0.969 ± 0.05.

In the case of A0A087WYU1|Q9Y5X1 (UniProt Q9Y5X1), the NP40-soluble protein abundance is, setting by setting: (concentration: 1mM) 0.96 ± 0.057; (concentration: 2mM) 0.984 ± 0.033; (concentration: 4mM) 0.995 ± 0.037; (concentration: 6mM) 1.01 ± 0.049; (concentration: 8mM) 1.01 ± 0.0068; (concentration: 10mM) 1.02 ± 0.015.

Consider A0A087WZE9|Q15651 (UniProt Q15651), for which the NP40-soluble protein abundance (concentration: 1mM) was found to be 1.07 ± 0.17; the NP40-soluble protein abundance (concentration: 2mM) was 1.45 ± 0.14; the NP40-soluble protein abundance (concentration: 4mM) was found to be 1.36 ± 0.23; the NP40-soluble protein abundance (concentration: 6mM) stood at 1.5 ± 0.4; the NP40-soluble protein abundance (concentration: 8mM) was determined as 1.44 ± 0.14; the NP40-soluble protein abundance (concentration: 10mM) worked out at 1.64 ± 0.45.

As for “A0A087X0R0|F5H6S1 and related entries (UniProt O15550)”, the NP40-soluble protein abundance runs as follows: (concentration: 1mM) 1.04 ± 0.086; (concentration: 2mM) 0.998 ± 0.07; (concentration: 4mM) 1.03 ± 0.074; (concentration: 6mM) 1.03 ± 0.054; (concentration: 8mM) 1.05 ± 0.052; (concentration: 10mM) 1.05 ± 0.013.

For the target “A0A087WT12|A0A087X2I2|K7ERP4 and related entries (UniProt P36969)”, the NP40-soluble protein abundance runs as follows: (concentration: 1mM) 0.93 ± 0.035; (concentration: 2mM) 0.96 ± 0.047; (concentration: 4mM) 0.945 ± 0.023; (concentration: 6mM) 0.885 ± 0.072; (concentration: 8mM) 0.9238 ± 0.0029; (concentration: 10mM) 0.952 ± 0.033.

For “A0A0A0MSB8|Q9UPT5 and related entries (UniProt Q9UPT5)”, the NP40-soluble protein abundance reads like this: (concentration: 1mM) 1.02 ± 0.042; (concentration: 2mM) 1.02 ± 0.035; (concentration: 4mM) 0.994 ± 0.048; (concentration: 6mM) 1.03 ± 0.045; (concentration: 8mM) 0.981 ± 0.06; (concentration: 10mM) 0.982 ± 0.014.

In the case of “A0A087WVF7|F8W719 and related entries (UniProt Q9NZM3)”, the NP40-soluble protein abundance is, setting by setting: (concentration: 1mM) 0.965 ± 0.051; (concentration: 2mM) 0.991 ± 0.03; (concentration: 4mM) 0.972 ± 0.042; (concentration: 6mM) 0.989 ± 0.036; (concentration: 8mM) 0.94 ± 0.027; (concentration: 10mM) 0.972 ± 0.03.

In the case of “A0A0C4DH01|Q9NVU0 and related entries (UniProt Q9NVU0)”, the NP40-soluble protein abundance (concentration: 1mM) was determined as 0.988 ± 0.095; the NP40-soluble protein abundance (concentration: 2mM) worked out at 1.01 ± 0.091; the NP40-soluble protein abundance (concentration: 4mM) stood at 1.06 ± 0.12; the NP40-soluble protein abundance (concentration: 6mM) stood at 1.02 ± 0.17; the NP40-soluble protein abundance (concentration: 8mM) turned out to be 1.05 ± 0.12; the NP40-soluble protein abundance (concentration: 10mM) came to 1.05 ± 0.14.

As for “A0A0A0MT32|P38571 and related entries (UniProt P38571)”, the NP40-soluble protein abundance by setting is: (concentration: 1mM) 0.899 ± 0.056; (concentration: 2mM) 0.904 ± 0.021; (concentration: 4mM) 0.823 ± 0.1; (concentration: 6mM) 0.856 ± 0.03; (concentration: 8mM) 0.794 ± 0.068; (concentration: 10mM) 0.879 ± 0.047.

Consider “A0A087X0I4|M0QXB4 and related entries (UniProt O14579)”, for which the NP40-soluble protein abundance stood at 1 ± 0.034 (concentration: 1mM); 0.9982 ± 0.0093 (concentration: 2mM); 1 ± 0.024 (concentration: 4mM); 0.979 ± 0.027 (concentration: 6mM); 0.999 ± 0.029 (concentration: 8mM); 0.979 ± 0.034 (concentration: 10mM).

On to A0A087WZ62, for which the NP40-soluble protein abundance runs as follows: (concentration: 1mM) 0.984 ± 0.058; (concentration: 4mM) 0.968 ± 0.019; (concentration: 6mM) 0.994 ± 0.073; (concentration: 8mM) 0.969 ± 0.06; (concentration: 10mM) 0.968 ± 0.0087.

Regarding A0A087WXI0 (UniProt Q7Z6P3), the NP40-soluble protein abundance (concentration: 1mM) was found to be 0.978 ± 0.055; the NP40-soluble protein abundance (concentration: 2mM) turned out to be 0.988 ± 0.059; the NP40-soluble protein abundance (concentration: 4mM) turned out to be 0.987 ± 0.062; the NP40-soluble protein abundance (concentration: 6mM) stood at 0.99 ± 0.033; the NP40-soluble protein abundance (concentration: 8mM) was determined as 0.936 ± 0.035; the NP40-soluble protein abundance (concentration: 10mM) is 0.969 ± 0.058.
